Measured values: publication PMC7819943, “Rice protein-binding microarrays: a tool to detect cis-acting elements near promoter regions in rice”
Some of the results follow.

What follows are sequences tested against T1, OsSMF1 (Oryza sativa, UniProt Q6ZLB0 1-436) (assay: protein-binding microarray (RPBM); PBS, 2% BSA, 51.3 ng/ul salmon testes DNA, 50 uM zinc acetate, 200 nM TF, 25 C, 1 h; high values mean tight binding). Details: protein: recombinant; tags: N-terminal polyhistidine and DsRed monomer fusion (pET32a); chain copies: 2; label: CyDye5-dUTP incorporated in the synthesized complementary strand; 3' TTTTT single-stranded linker to array surface; dsDNA, one strand shown.
T1 sequence: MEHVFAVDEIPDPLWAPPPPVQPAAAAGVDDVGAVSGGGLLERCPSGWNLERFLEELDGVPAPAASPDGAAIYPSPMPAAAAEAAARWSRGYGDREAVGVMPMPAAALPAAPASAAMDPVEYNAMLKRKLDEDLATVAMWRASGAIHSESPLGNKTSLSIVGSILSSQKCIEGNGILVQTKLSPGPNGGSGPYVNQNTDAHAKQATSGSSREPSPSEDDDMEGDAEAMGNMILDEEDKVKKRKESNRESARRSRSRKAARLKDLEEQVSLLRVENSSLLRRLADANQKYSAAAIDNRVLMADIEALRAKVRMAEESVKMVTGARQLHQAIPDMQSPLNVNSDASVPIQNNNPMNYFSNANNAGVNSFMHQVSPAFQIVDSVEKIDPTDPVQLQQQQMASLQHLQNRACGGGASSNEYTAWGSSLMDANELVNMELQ
In short: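 The binding signal is fluorescence intensity per feature, in arbitrary units, read on an Axon 4000B scanner. Polyhistidine- and DsRed-tagged transcription factors (N-terminal fusions) from E. coli BL21-CodonPlus were purified on Ni–NTA and applied at 200 nM for 1 h at 25 °C to a double-stranded, BSA-blocked custom Agilent array in buffer with 50 µM zinc acetate.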

| Sequence | binding signal |
| --- | --- |
| CCGTTGGATCGCAATCCATCACGCACATCCCTCCGCCACCCGGAGTCACCTAGTGCAG | 24700 fluorescence intensity (a.u.) |
| ACGAAGCCACACTGTTCATTCATCACGTCCCCAACTCTGCCGGAGTCACCTAGTGCAG | 25400 fluorescence intensity (a.u.) |
| CTCATCCACCCATCCTCATCCTTATCCTCACTCTCTCCTCCGGAGTCACCTAGTGCAG | 4200 fluorescence intensity (a.u.) |
| GCAAAGGCTTGACAGATGTGAGTCCTAACTCAAACTATTGCGGAGTCACCTAGTGCAG | 3540 fluorescence intensity (a.u.) |
| AATCAATCCATTAATATTTAACATGATCAGGCATTAGTCGCGGAGTCACCTAGTGCAG | 3580 fluorescence intensity (a.u.) |
| CACCTGCATGACGACTTAAATGTTTATGGTGATATCTTCTCGGAGTCACCTAGTGCAG | 3520 fluorescence intensity (a.u.) |
| TGAAGAATTGGAGTTGTACACTTGATAGTATAGTGGAAAGCGGAGTCACCTAGTGCAG | 19000 fluorescence intensity (a.u.) |
| ACATCGAGATGCATATCTTTGATACGTCATGCGCACTGATCGGAGTCACCTAGTGCAG | 5930 fluorescence intensity (a.u.) |
| CTGAACCATCCGACTCACCACCGGTATTTCTCGGCCATCTCGGAGTCACCTAGTGCAG | 3950 fluorescence intensity (a.u.) |
| TCAAGGGAGAGGCGAGAGACATATAAATAAGGGTGCTCCGCGGAGTCACCTAGTGCAG | 3160 fluorescence intensity (a.u.) |
| ATCTAAATATTTATAAATCTATTGAAGTTTAATTTTCTTTCGGAGTCACCTAGTGCAG | 4810 fluorescence intensity (a.u.) |
| CTACTGGTAGATGATAGGTCAGGCAATGAATTGTAGATTGCGGAGTCACCTAGTGCAG | 3550 fluorescence intensity (a.u.) |
| GGCGACACCGCCACCGCCGCCGTCTCAGTCAGCGACCGTGCGGAGTCACCTAGTGCAG | 3170 fluorescence intensity (a.u.) |
| GCGCAGAGATCGTGTACAACTGTGCACATGTATGGTGTTTCGGAGTCACCTAGTGCAG | 3510 fluorescence intensity (a.u.) |
| AAGTCACATAAATTGCTTTACATGGTCTCAATGATAAGTACGGAGTCACCTAGTGCAG | 21100 fluorescence intensity (a.u.) |
| ATGCACGCGAGCACGTCGGCACACATCATGATCATCTAGCCGGAGTCACCTAGTGCAG | 3850 fluorescence intensity (a.u.) |
| GTAACCAGTTCGGGTCATTTAGCAACAGCTCCTTTGAAGGCGGAGTCACCTAGTGCAG | 3570 fluorescence intensity (a.u.) |
| GCGTTATTGTACTAACGCGCGACGGAGCAAGAAAACGTATCGGAGTCACCTAGTGCAG | 4110 fluorescence intensity (a.u.) |
| GTCTTCTTCCTCCTCCTGTCCTGGATCTCACAGGGTGGCACGGAGTCACCTAGTGCAG | 3190 fluorescence intensity (a.u.) |
| CAATATCGTGCGTGCGTTCTTAGTGTTTGGGCTAACAAAACGGAGTCACCTAGTGCAG | 4940 fluorescence intensity (a.u.) |
| CAATTTTAGCAAATGTTCCTGCTCCGTGATTTGGCGGCATCGGAGTCACCTAGTGCAG | 19200 fluorescence intensity (a.u.) |

A second format for some results above:
Sequence | binding signal
CCGTTGGATCGCAATCCATCACGCACATCCCTCCGCCACCCGGAGTCACCTAGTGCAG | 24700 fluorescence intensity (a.u.)
ACGAAGCCACACTGTTCATTCATCACGTCCCCAACTCTGCCGGAGTCACCTAGTGCAG | 25400 fluorescence intensity (a.u.)
CTCATCCACCCATCCTCATCCTTATCCTCACTCTCTCCTCCGGAGTCACCTAGTGCAG | 4200 fluorescence intensity (a.u.)
TGAAGAATTGGAGTTGTACACTTGATAGTATAGTGGAAAGCGGAGTCACCTAGTGCAG | 19000 fluorescence intensity (a.u.)
TCAAGGGAGAGGCGAGAGACATATAAATAAGGGTGCTCCGCGGAGTCACCTAGTGCAG | 3160 fluorescence intensity (a.u.)
ATCTAAATATTTATAAATCTATTGAAGTTTAATTTTCTTTCGGAGTCACCTAGTGCAG | 4810 fluorescence intensity (a.u.)
GCGCAGAGATCGTGTACAACTGTGCACATGTATGGTGTTTCGGAGTCACCTAGTGCAG | 3510 fluorescence intensity (a.u.)
AAGTCACATAAATTGCTTTACATGGTCTCAATGATAAGTACGGAGTCACCTAGTGCAG | 21100 fluorescence intensity (a.u.)
ATGCACGCGAGCACGTCGGCACACATCATGATCATCTAGCCGGAGTCACCTAGTGCAG | 3850 fluorescence intensity (a.u.)
GCGTTATTGTACTAACGCGCGACGGAGCAAGAAAACGTATCGGAGTCACCTAGTGCAG | 4110 fluorescence intensity (a.u.)
GTCTTCTTCCTCCTCCTGTCCTGGATCTCACAGGGTGGCACGGAGTCACCTAGTGCAG | 3190 fluorescence intensity (a.u.)

Additional records follow:

| Sequence | binding signal |
| --- | --- |
| GGTGGATTATGACTCTACGCTGACAATGACATCAACCTGCCGGAGTCACCTAGTGCAG | 9370 fluorescence intensity (a.u.) |
| CTGAGTGCGTCTTCAAGACGTTAGAATGCTGACATGCTTGCGGAGTCACCTAGTGCAG | 4300 fluorescence intensity (a.u.) |
| AGGGGATGGGATCACCGCGATGCAAAATTAACTCAAATATCGGAGTCACCTAGTGCAG | 19400 fluorescence intensity (a.u.) |
| GCAATGGCGTCATGCTATGCTTGCAGTTGCAGGCTGATTTCGGAGTCACCTAGTGCAG | 4280 fluorescence intensity (a.u.) |
| GTCTGCAACCAACTTGATTACACCAAACGACTTATATTTGCGGAGTCACCTAGTGCAG | 15900 fluorescence intensity (a.u.) |
| TGCGGATACAGTCACTACTACTTACGCGCCTTCGACATGTCGGAGTCACCTAGTGCAG | 3870 fluorescence intensity (a.u.) |
| GCGACCCAAATGACGTCCACGTGTAAATATCTTCGCTCCGCGGAGTCACCTAGTGCAG | 12700 fluorescence intensity (a.u.) |
| TTCCGTGCCTCGACCTCGCCCAGCGCCTGGCGTGTGGCCACGGAGTCACCTAGTGCAG | 3450 fluorescence intensity (a.u.) |
| GTTACTTGCGTGTGGTGCCACGGTGACAGTCAGCCGCGGTCGGAGTCACCTAGTGCAG | 7450 fluorescence intensity (a.u.) |
| AATAATTTTGGAATGGCACCGAATTACCCTCTCCACCTCGCGGAGTCACCTAGTGCAG | 3160 fluorescence intensity (a.u.) |
| GGGGATTAGAGGGGAGAGAGGTTGTCTCTTTGAGATTCGTCGGAGTCACCTAGTGCAG | 3250 fluorescence intensity (a.u.) |
| AAATACGGAGAGAAGAAGGCTCACTAAGCGCGCTTACTATCGGAGTCACCTAGTGCAG | 42500 fluorescence intensity (a.u.) |
| CAGCGTGACACGGTGGACGGGATGACGGCTATGGTTGCAGCGGAGTCACCTAGTGCAG | 5720 fluorescence intensity (a.u.) |
| AACCGCACTGTGAATTTCTGACTAAATCAGAACTGTCATTCGGAGTCACCTAGTGCAG | 3830 fluorescence intensity (a.u.) |
| TGAGAGGTCTACATCATTACATGTCAAGACAAGACTACCACGGAGTCACCTAGTGCAG | 4540 fluorescence intensity (a.u.) |
| ACTAATAGTGTTTCTTCATGACCTACCACTTCTTTATACGCGGAGTCACCTAGTGCAG | 3620 fluorescence intensity (a.u.) |
| CCCCGCGACTCCGCGACGCCGACGCGATCCACGGTTCCCCCGGAGTCACCTAGTGCAG | 3280 fluorescence intensity (a.u.) |
| ATGCTGACACGTGGGTCTCACGCTGACTCAACCACCGATGCGGAGTCACCTAGTGCAG | 15000 fluorescence intensity (a.u.) |
| TCGAGCCGCGCACGCTGGAGGAGGCCCTCGTTCCGCGCGTCGGAGTCACCTAGTGCAG | 3380 fluorescence intensity (a.u.) |
| GCTGGTTCGTGCGTCCTTTGTATGTGACATGTTTGGGGAGCGGAGTCACCTAGTGCAG | 3160 fluorescence intensity (a.u.) |
| GCCGAGGCCTGCTCAGTGGACACCACCAGCAAAGCAAGGGCGGAGTCACCTAGTGCAG | 3870 fluorescence intensity (a.u.) |
